Measurements reported in PubChem BioAssay AID192 (DTP/NCI, 2004).
The list shows only some results of the screen, not a fair sample: it is rich in T/C values a quarter to a half above the control, in often repeated tests (any T/C) and in doses without a T/C. Other doses and runs of a compound stand elsewhere. T/C is the treated group as % of the vehicle group. Some entries give survivors of the animals treated and no T/C: the source files T/C as zero there, which appears to mark a toxic dose or a test without result, not a measured value. Some doses without a T/C left all or most animals alive at the check, yet need not have been tolerated: the source hardly ever lists a survival T/C far under the control, and the zero likely stands for such cases as well. Counts of survivors are from the toxicity check (mostly the fifth day) where no day follows; animals may have died later. Schedule codes are those of the source, read here as Q, the interval in days (D) or hours (H), X, the number of doses. Some doses were run more than once; their values stand side by side, smallest first. Where survival is the endpoint, the PubChem record calls one and a half times the control and up active, and a quarter to a half above the control has no call in these data; cut-offs in other NCI protocols can differ. Some T/C values carry the count of animals alive at the toxicity check (mostly the fifth day); where none is given, no animal had died by that day.

Test system: BDF1 mice, B16 melanoma ip, median survival T/C
Experiment: NCI In Vivo Anticancer Drug Screen. Data for tumor model B16 Melanoma (intraperitoneal) in B6D2F1 (BDF1) mice
Conditions: T/C endpoint: median survival time, higher T/C = longer survival
Summary of the method: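 Vehicle-treated animals serve as the reference (C); treated animals (T) are scored for survival or tumor size after tumor transplantation.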

[1] = dose: 25.0 mg/kg/injection, schedule: Q01DX009 (ip), vehicle: saline
[2] = dose: 12.5 mg/kg/injection, schedule: Q01DX009 (ip), vehicle: Klucel (hydroxypropylcellulose) (HPC)
[3] = dose: 25.0 mg/kg/injection, schedule: Q01DX009 (ip), vehicle: Klucel (hydroxypropylcellulose) (HPC)
[4] = dose: 2.5 mg/kg/injection, schedule: Q01DX009 (ip), vehicle: saline
[5] = dose: 5.0 mg/kg/injection, schedule: Q01DX009 (ip), vehicle: saline
[6] = dose: 10.0 mg/kg/injection, schedule: Q01DX009 (ip), vehicle: saline
[7] = dose: 100.0 mg/kg/injection, schedule: Q01DX009 (ip), vehicle: saline with Tween-80
[8] = dose: 200.0 mg/kg/injection, schedule: Q01DX009 (ip), vehicle: saline with Tween-80
[9] = dose: 400.0 mg/kg/injection, schedule: Q01DX009 (ip), vehicle: saline with Tween-80
[10] = dose: 100.0 mg/kg/injection, schedule: Q01DX009 (ip), vehicle: Klucel (hydroxypropylcellulose) (HPC)
[11] = dose: 50.0 mg/kg/injection, schedule: Q01DX009 (ip), vehicle: Klucel (hydroxypropylcellulose) (HPC)
[12] = dose: 25.0 mg/kg/injection, schedule: Q01DX009 (ip), vehicle: saline with Tween-80
[13] = dose: 50.0 mg/kg/injection, schedule: Q01DX009 (ip), vehicle: saline with Tween-80
[14] = dose: 100.0 mg/kg/injection, schedule: Q01DX009 (ip), vehicle: saline

Oc1ccc2ccc3[nH]cnc3c2c1
survivor count (dose: 200.0 mg/kg/injection, schedule: Q04DX003 (ip), vehicle: Klucel (hydroxypropylcellulose) (HPC)): 10 of 10

CC(=O)Nc1cc(N(CCOS(C)(=O)=O)CCOS(C)(=O)=O)ccc1N=O
survivor count (dose: 0.12 mg/kg/injection, schedule: Q01DX009 (ip), vehicle: saline): 10 of 10 | survivor count (dose: 0.25 mg/kg/injection, schedule: Q01DX009 (ip), vehicle: saline): 10 of 10 | survivor count (dose: 0.5 mg/kg/injection, schedule: Q01DX009 (ip), vehicle: saline): 10 of 10 | survivor count (dose: 0.62 mg/kg/injection, schedule: Q04DX003 (ip), vehicle: saline with Tween-80): 10 of 10 | survivor count (dose: 1.0 mg/kg/injection, schedule: Q01DX009 (ip), vehicle: saline): 3 of 10 | survivor count (dose: 1.25 mg/kg/injection, schedule: Q04DX003 (ip), vehicle: saline with Tween-80): 10 of 10 | survivor count (dose: 2.5 mg/kg/injection, schedule: Q04DX003 (ip), vehicle: saline with Tween-80): 8 of 10 | survivor count (dose: 5.0 mg/kg/injection, schedule: Q04DX003 (ip), vehicle: saline with Tween-80): 4 of 10 | T/C (dose: 25.0 micrograms/kg/injection, schedule: Q01DX009 (ip), vehicle: saline): 126 % of control | T/C (dose: 50.0 micrograms/kg/injection, schedule: Q01DX009 (ip), vehicle: saline): 128 % of control

CN(C)c1ccc2nc3ccc(=[N+](C)C)cc-3sc2c1
survivor count [1]: 10 of 10 | survivor count (dose: 50.0 mg/kg/injection, schedule: Q01DX009 (ip), vehicle: saline): 8 of 10

COc1cc(NC(=O)CC(C)=O)cc(OC)c1OC
T/C (dose: 200.0 mg/kg/injection, schedule: Q01DX009 (ip), vehicle: saline): 125 % of control

CS(=O)(=O)ON1C(=O)c2ccccc2C1=O
survivor count [2]: 10 of 10 | survivor count [3]: 10 of 10

C[n+]1ccc(Nc2ccc(NC(=O)c3ccc(Nc4cc[n+](C)c5ccc(N)cc45)cc3)cc2)cc1
survivor count (dose: 1.0 mg/kg/injection, schedule: Q01DX009 (ip), vehicle: Klucel (hydroxypropylcellulose) (HPC)): 9 of 10 | survivor count (dose: 16.0 mg/kg/injection, schedule: Q01DX009 (ip), vehicle: Klucel (hydroxypropylcellulose) (HPC)): 9 of 10 and 10 of 10 | survivor count (dose: 32.0 mg/kg/injection, schedule: Q01DX009 (ip), vehicle: Klucel (hydroxypropylcellulose) (HPC)): 6 of 10 | survivor count (dose: 32.0 mg/kg/injection, schedule: Q02DX009 (ip), vehicle: Klucel (hydroxypropylcellulose) (HPC)): 9 of 10 | survivor count (dose: 64.0 mg/kg/injection, schedule: Q02DX009 (ip), vehicle: Klucel (hydroxypropylcellulose) (HPC)): 7 of 10 and 8 of 10

Oc1ccc(Nc2ccnc3cc(Cl)ccc23)cc1CN(CCCl)CCCl
survivor count [4]: 12 of 12 | survivor count [5]: 12 of 12 | survivor count [6]: 12 of 12

O=C1CCC(c2ccccc2)=NN1
survivor count [7]: 10 of 10 | survivor count [8]: 8 of 10 | survivor count [9]: 7 of 10

O=C(N/N=C/c1ccc(N(CCCl)CCCl)cc1)c1ccc(C(=O)N/N=C/c2ccc(N(CCCl)CCCl)cc2)cc1
survivor count (dose: 25.0 mg/kg/injection, schedule: Q04DX003 (ip), vehicle: Klucel (hydroxypropylcellulose) (HPC)): 9 of 10 | survivor count (dose: 100.0 mg/kg/injection, schedule: Q04DX003 (ip), vehicle: Klucel (hydroxypropylcellulose) (HPC)): 5 of 10

C=C(NC(=O)C(=C)NC(=O)c1csc(C2=NC3c4csc(n4)C4NC(=O)c5csc(n5)C(C(C)(O)C(C)O)NC(=O)C5CSC(=N5)/C(=C/C)NC(=O)C(C(C)O)NC(=O)c5csc(n5)C3(CC2)NC(=O)C(C)NC(=O)C(=C)NC(=O)C(C)NC(=O)C(C(C)CC)NC2C=Cc3c(C(C)O)cc(nc3C2O)C(=O)OC4C)n1)C(N)=O (stereo unspecified)
survivor count (dose: 400.0 mg/kg/injection, schedule: Q01DX009 (ip), vehicle: Klucel (hydroxypropylcellulose) (HPC)): 10 of 10

CCCCCCCCCCCCO
survivor count [7]: 10 of 10 | survivor count [8]: 7 of 10 | survivor count [9]: 4 of 10

CCNC(C)(C)C(SSS)c1ccco1 (stereo unspecified)
survivor count [10]: 8 of 10

O=C(CBr)c1ccc(F)cc1
survivor count [3]: 4 of 10

Nc1ncnc2c1ncn2C1OC(CO)CC1O (stereo unspecified)
survivor count (dose: 150.0 mg/kg/injection, schedule: Q01DX009 (ip), vehicle: Klucel (hydroxypropylcellulose) (HPC)): 7 of 10 and 9 of 10 | survivor count (dose: 300.0 mg/kg/injection, schedule: Q01DX009 (ip), vehicle: Klucel (hydroxypropylcellulose) (HPC)): 6 of 10 and 8 of 10

Cc1c2oc3c(C)ccc(C(=O)NCCN4CCCCC4)c3nc-2c(C(=O)NCCN2CCCCC2)c(N)c1=O
survivor count [11]: 10 of 10 | survivor count [10]: 10 of 10 | survivor count (dose: 200.0 mg/kg/injection, schedule: Q01DX009 (ip), vehicle: Klucel (hydroxypropylcellulose) (HPC)): 3 of 10

CC(C)C(=O)[O][Sn]([c]1ccccc1)([c]1ccccc1)[c]1ccccc1
survivor count [12]: 8 of 10 | survivor count [13]: 1 of 10

COc1cccc2c1C(=O)c1c(O)c3c(c(O)c1C2=O)C[C@@](O)(C(=O)CO)C[C@@H]3OC1CC([N+](C)(C)C)C(O)C(C)O1 (stereo partly specified)
T/C (dose: 18.0 mg/kg/injection, schedule: Q01DX001 (ip), vehicle: water): 125 % of control [7 of 8 alive] | T/C (dose: 20.0 mg/kg/injection, schedule: Q04DX003 (ip), vehicle: water): 131 % of control

CCCNC1=C(N2CC2)C(=O)C(NCCC)=C(N2CC2)C1=O
T/C [4]: 125 % of control | T/C [5]: 136 % of control | survivor count [6]: 10 of 10

O=C1c2cccc3cc([N+](=O)[O-])cc(c23)C(=O)N1CCN1CCCC1
survivor count [12]: 9 of 10 | survivor count [13]: 10 of 10

Cc1ccc(Cl)cc1NC(=O)c1ccc(Cl)cc1Cl
survivor count (dose: 400.0 mg/kg/injection, schedule: Q04DX003 (ip), vehicle: Klucel (hydroxypropylcellulose) (HPC)): 10 of 10

N=C(N)SCCCCCCCCCCSC(=N)N
survivor count [13]: 9 of 10 | survivor count [7]: 0 of 10

[Cl][Pt+2][Cl].[NH-]C1CCC1.[NH2-]
survivor count (dose: 6.0 mg/kg/injection, schedule: Q01DX009 (ip), vehicle: saline): 10 of 10 | survivor count (dose: 12.0 mg/kg/injection, schedule: Q01DX009 (ip), vehicle: saline): 1 of 10

CCN(CC)CC#CCCCCN(CC)CC
survivor count [1]: 10 of 10 | survivor count [14]: 10 of 10

Nc1nnc[se]1
survivor count [13]: 10 of 10 | survivor count [7]: 6 of 10

COc1cccc2c1C(=O)c1c(O)c3c(c(O)c1C2=O)C[C@@](O)(C(C)=O)C[C@@H]3OC1CC(NC(C)=O)C(O)C(C)O1 (stereo partly specified)
T/C (dose: 3.13 mg/kg/injection, schedule: Q01DX009 (ip), vehicle: saline): 129 % of control | survivor count [14]: 9 of 10

Cc1cc(C)nc(NS(=O)(=O)c2ccc(N=Nc3nc4[nH]c(N)nc(=S)c4[nH]3)cc2)n1
survivor count (dose: 3.12 mg/kg/injection, schedule: Q01DX009 (ip), vehicle: Klucel (hydroxypropylcellulose) (HPC)): 10 of 10 | survivor count (dose: 6.25 mg/kg/injection, schedule: Q01DX009 (ip), vehicle: Klucel (hydroxypropylcellulose) (HPC)): 9 of 10 | survivor count [2]: 10 of 10 | survivor count [3]: 9 of 10 | survivor count [11]: 10 of 10 | survivor count [10]: 10 of 10

CCC1(CC)COC(=O)NC1=O
survivor count [1]: 7 of 10

Cc1ccc2ccccc2c1OC(C)C(=O)O (stereo unspecified)
survivor count (dose: 25.0 mg/kg/injection, schedule: Q04DX003 (ip), vehicle: alcohol): 10 of 10 | survivor count (dose: 50.0 mg/kg/injection, schedule: Q04DX003 (ip), vehicle: alcohol): 10 of 10 | survivor count (dose: 100.0 mg/kg/injection, schedule: Q04DX003 (ip), vehicle: alcohol): 10 of 10 | survivor count (dose: 200.0 mg/kg/injection, schedule: Q01DX009 (ip), vehicle: alcohol): 8 of 10
